In US20040197334A1:
No constants are given. Whether binding was seen depends on the method and setting. Some binding calls cover weakened binding; strength is not graded here.

Chains of the proteins cited; added tags and fusions are not shown.
UniProt P08183: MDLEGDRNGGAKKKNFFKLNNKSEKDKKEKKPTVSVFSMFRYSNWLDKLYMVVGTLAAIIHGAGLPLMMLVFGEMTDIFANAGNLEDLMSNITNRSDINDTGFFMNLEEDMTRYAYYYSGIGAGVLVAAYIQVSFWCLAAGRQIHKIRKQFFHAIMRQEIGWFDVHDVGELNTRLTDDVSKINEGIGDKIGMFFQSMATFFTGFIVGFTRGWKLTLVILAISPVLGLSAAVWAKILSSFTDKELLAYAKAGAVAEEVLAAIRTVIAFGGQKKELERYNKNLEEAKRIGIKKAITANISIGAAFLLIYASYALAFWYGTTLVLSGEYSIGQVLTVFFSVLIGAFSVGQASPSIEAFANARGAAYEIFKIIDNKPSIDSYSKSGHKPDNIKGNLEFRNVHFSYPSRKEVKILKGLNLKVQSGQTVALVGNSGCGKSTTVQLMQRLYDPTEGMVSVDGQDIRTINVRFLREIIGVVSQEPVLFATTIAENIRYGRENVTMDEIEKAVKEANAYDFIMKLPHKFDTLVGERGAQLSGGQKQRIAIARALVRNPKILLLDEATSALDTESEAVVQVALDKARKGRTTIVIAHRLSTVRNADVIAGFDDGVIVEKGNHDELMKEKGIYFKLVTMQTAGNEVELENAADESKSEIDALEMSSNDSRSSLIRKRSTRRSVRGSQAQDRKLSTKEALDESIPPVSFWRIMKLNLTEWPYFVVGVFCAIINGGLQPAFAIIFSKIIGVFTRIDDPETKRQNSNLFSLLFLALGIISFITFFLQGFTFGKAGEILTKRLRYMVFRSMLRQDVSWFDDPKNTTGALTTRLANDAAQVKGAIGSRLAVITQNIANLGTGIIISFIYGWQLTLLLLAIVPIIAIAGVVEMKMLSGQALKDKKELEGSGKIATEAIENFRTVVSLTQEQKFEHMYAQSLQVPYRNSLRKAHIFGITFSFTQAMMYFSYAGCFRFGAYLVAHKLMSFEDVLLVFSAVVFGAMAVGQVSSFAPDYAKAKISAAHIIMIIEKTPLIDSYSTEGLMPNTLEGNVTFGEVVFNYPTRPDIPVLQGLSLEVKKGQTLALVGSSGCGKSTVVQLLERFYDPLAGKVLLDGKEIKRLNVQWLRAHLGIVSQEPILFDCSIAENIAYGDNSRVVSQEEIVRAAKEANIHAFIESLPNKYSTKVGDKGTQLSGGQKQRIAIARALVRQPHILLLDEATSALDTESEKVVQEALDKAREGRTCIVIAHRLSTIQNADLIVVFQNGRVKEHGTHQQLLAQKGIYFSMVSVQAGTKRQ

Tests used:
[1] = target: biotinylated target Pgp-derived peptide having the amino acid sequence of SEQ ID NO:1 (…) (human); assay: ELISA, FIG. 1b legend
[2] = target: human P-glycoprotein (Pgp), 170 kDa, encoded by the mdr1 gene, on the surface of MDR human carcinoma cells (2780^ADR, KBV-1) (human) (UniProt P08183); assay: immunohistochemistry on fixed cells, A2 scFv 0.2 mg/ml, anti-Myc-HRP
[3] = target: biotinylated target Pgp-derived peptide having the amino acid sequence of SEQ ID NO:1 (…) (human); assay: competition radioimmunoassay
[4] = target: human P-glycoprotein (Pgp), 170 kDa, encoded by the mdr1 gene, on the surface of MDR human carcinoma cells (2780^ADR, KBV-1) (human) (UniProt P08183); assay: summary of flow cytometry and immunohistochemistry
[5] = target: human P-glycoprotein (Pgp), 170 kDa, encoded by the mdr1 gene, on the surface of MDR human carcinoma cells (2780^ADR, KBV-1) (human) (UniProt P08183); assay: flow cytometry on MDR cells
[6] = target: biotinylated target Pgp-derived peptide having the amino acid sequence of SEQ ID NO:1 (…) (human); assay: saturation ELISA
[7] = target: human P-glycoprotein (Pgp), 170 kDa, encoded by the mdr1 gene, on the surface of MDR human carcinoma cells (2780^ADR, KBV-1) (human) (UniProt P08183); assay: flow cytometry on MDR, Pgp-overexpressing KBV-1 cells (FIG. 2d legend)
[8] = target: biotinylated target Pgp-derived peptide having the amino acid sequence of SEQ ID NO:1 (…) (human); assay: ELISA, anti-Myc-HRP detection

Measured: binding

B1: A2 single-chain Fv (scFv) (scFv)
scFv: QVQLQQSGPDLVKPGASVKISCKASGYSFTGYYMHWVKQSHGKSLEWIGRANPNNGGTSYNQKFKGKAILTVDKSSSTAYMELRSLTSEDSAVYYCARWDGAYWGQGTLVTVSSGGGGSGGGGSGGGGSDVVMTQTPLSLPVSLGDQASISCRSSQSIVHSNGNTYLEWYLQKPGQSPKLLIYKVSNRFSGVPDRFSGSGSGTDFTLKISRVEAEDLGVYYCFQGSHVPFTFGSGTKLELKEQKLISEEDLNHHHHHH
binds: all assays above
